According to the supplement of paper PMC6411743:
± gives the standard deviation of the averaged measurements. This is a selection; strong and weak results do not stand in their true shares. Small differences around the control level are noise.

Chains of the proteins cited; added tags and fusions are not shown. Lines headed by an entry give the natural chain unless they say otherwise; changes in a name come on top.
UniProt P41732: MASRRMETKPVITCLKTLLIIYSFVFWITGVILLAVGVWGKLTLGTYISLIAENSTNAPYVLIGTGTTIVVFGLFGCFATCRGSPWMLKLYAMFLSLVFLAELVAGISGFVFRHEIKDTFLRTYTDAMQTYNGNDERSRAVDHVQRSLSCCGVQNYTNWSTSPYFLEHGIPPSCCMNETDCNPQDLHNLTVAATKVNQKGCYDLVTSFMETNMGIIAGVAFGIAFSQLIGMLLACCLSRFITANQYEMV
UniProt Q32P44: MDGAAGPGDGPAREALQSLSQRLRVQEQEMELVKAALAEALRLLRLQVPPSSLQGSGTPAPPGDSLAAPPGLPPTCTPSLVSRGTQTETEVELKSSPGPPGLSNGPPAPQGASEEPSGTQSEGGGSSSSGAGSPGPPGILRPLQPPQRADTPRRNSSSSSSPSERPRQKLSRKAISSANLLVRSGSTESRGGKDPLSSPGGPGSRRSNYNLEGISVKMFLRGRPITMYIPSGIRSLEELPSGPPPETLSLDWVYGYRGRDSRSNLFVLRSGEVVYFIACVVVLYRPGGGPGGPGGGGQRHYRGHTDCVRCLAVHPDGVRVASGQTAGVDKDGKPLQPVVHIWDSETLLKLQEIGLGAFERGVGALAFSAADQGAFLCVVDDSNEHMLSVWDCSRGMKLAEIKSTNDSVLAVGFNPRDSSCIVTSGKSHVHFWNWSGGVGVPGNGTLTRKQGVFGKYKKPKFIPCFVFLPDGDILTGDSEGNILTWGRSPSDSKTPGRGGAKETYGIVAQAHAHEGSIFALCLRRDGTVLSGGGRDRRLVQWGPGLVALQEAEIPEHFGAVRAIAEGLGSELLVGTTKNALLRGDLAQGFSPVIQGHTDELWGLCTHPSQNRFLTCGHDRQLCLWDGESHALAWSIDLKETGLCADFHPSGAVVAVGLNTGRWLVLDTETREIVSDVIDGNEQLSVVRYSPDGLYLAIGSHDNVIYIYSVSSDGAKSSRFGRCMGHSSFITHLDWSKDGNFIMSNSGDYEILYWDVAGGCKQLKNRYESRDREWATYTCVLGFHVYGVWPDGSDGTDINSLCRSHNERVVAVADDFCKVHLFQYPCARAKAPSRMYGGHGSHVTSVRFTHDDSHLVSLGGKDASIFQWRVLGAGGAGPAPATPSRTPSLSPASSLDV
UniProt Q5JTW2: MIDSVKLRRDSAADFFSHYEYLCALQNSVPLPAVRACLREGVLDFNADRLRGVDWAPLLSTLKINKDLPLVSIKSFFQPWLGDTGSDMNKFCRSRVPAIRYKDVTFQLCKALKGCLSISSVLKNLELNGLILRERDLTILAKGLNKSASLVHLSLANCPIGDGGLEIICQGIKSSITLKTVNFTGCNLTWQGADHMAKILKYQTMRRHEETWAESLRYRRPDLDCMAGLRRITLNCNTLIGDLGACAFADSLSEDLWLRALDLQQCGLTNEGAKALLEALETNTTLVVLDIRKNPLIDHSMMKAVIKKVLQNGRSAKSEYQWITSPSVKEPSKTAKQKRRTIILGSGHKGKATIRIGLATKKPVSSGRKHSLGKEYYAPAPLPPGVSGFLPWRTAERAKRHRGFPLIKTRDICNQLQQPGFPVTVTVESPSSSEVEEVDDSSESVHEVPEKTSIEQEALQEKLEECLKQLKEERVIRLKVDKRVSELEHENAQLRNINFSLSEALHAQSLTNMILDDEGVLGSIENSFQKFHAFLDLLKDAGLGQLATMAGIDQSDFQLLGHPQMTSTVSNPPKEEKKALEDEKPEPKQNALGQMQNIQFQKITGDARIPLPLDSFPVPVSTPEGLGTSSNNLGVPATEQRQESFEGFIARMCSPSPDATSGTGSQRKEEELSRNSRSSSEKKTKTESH
UniProt Q70CQ3: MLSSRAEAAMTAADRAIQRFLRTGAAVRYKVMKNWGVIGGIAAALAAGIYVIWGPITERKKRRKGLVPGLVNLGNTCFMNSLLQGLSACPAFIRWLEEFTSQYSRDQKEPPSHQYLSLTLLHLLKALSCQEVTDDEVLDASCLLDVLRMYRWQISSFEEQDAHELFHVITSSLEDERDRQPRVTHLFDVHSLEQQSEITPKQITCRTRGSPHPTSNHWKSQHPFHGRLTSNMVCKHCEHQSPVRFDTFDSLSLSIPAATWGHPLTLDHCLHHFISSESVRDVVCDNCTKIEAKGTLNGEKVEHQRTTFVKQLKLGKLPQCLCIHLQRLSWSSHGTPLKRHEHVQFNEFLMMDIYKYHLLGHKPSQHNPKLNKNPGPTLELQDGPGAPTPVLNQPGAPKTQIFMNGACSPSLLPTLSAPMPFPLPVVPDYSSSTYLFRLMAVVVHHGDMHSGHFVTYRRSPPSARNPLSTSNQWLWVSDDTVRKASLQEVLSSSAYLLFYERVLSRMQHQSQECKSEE
UniProt Q53GS9: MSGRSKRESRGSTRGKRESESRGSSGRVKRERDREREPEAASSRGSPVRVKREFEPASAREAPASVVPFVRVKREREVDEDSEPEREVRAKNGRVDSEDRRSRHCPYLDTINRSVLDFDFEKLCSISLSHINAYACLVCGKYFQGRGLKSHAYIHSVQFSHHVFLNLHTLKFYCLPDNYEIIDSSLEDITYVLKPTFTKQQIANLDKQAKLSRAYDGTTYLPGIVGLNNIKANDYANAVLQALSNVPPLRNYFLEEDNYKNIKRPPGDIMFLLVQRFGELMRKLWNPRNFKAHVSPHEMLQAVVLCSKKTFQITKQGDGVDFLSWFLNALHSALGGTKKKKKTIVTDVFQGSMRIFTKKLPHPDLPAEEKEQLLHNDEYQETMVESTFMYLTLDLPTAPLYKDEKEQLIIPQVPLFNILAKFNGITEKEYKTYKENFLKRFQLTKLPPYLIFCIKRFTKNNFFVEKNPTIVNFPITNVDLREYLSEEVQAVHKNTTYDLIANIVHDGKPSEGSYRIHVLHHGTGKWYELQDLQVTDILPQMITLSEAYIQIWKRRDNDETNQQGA
UniProt Q03518, whole entry: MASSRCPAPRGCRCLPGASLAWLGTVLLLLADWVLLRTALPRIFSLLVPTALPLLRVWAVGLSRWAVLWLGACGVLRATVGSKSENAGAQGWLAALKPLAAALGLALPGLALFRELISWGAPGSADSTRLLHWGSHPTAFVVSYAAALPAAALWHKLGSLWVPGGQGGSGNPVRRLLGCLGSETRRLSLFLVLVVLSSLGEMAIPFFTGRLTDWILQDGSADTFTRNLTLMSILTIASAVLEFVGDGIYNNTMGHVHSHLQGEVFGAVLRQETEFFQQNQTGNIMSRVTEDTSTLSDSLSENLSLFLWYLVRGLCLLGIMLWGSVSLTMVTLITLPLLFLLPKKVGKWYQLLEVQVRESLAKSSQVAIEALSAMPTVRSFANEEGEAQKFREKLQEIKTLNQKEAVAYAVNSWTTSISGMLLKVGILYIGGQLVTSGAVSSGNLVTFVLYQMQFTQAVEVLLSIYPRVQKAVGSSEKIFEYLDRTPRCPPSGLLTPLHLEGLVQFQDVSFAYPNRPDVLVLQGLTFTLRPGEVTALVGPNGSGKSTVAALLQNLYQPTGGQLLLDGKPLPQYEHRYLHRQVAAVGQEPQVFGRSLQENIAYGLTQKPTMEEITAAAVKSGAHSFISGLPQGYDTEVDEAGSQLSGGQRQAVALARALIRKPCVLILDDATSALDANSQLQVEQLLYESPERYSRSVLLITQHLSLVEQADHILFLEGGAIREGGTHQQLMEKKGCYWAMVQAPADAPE
UniProt Q9Y672: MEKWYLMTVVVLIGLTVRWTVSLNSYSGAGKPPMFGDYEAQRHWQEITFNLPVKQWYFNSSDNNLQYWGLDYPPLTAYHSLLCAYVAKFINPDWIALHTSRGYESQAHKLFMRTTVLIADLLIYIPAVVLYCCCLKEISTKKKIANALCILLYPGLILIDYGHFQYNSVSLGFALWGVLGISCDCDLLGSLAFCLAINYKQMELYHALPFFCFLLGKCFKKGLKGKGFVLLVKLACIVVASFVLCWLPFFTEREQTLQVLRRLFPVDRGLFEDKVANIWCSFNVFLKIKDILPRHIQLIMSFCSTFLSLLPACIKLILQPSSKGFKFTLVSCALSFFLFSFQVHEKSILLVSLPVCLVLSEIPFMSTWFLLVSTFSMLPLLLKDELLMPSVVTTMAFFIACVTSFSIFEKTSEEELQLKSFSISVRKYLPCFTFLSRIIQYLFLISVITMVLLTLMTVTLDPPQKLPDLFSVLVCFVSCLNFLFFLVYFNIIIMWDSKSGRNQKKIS
UniProt Q9BZL6: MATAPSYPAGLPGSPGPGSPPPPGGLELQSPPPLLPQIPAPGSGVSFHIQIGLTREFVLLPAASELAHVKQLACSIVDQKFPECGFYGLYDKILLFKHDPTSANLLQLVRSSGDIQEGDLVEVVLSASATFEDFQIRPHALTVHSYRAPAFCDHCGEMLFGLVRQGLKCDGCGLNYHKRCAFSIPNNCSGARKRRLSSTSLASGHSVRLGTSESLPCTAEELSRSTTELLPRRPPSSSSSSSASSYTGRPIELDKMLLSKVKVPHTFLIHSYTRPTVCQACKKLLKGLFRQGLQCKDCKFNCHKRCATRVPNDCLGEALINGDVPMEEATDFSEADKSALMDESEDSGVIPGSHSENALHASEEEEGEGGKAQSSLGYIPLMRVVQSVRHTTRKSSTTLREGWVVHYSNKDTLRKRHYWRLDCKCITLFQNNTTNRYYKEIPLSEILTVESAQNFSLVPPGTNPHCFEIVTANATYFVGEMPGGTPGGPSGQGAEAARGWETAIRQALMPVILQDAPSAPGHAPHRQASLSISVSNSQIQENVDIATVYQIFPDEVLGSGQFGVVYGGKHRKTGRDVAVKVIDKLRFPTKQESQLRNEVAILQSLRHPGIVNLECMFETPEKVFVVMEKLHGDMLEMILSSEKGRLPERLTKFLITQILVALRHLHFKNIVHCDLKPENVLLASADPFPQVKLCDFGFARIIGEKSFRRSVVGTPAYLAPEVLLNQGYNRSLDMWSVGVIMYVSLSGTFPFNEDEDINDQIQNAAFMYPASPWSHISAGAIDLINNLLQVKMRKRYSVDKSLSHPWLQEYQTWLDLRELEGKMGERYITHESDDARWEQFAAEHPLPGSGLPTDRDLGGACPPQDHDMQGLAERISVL
UniProt P0DMV9, whole entry, looked up: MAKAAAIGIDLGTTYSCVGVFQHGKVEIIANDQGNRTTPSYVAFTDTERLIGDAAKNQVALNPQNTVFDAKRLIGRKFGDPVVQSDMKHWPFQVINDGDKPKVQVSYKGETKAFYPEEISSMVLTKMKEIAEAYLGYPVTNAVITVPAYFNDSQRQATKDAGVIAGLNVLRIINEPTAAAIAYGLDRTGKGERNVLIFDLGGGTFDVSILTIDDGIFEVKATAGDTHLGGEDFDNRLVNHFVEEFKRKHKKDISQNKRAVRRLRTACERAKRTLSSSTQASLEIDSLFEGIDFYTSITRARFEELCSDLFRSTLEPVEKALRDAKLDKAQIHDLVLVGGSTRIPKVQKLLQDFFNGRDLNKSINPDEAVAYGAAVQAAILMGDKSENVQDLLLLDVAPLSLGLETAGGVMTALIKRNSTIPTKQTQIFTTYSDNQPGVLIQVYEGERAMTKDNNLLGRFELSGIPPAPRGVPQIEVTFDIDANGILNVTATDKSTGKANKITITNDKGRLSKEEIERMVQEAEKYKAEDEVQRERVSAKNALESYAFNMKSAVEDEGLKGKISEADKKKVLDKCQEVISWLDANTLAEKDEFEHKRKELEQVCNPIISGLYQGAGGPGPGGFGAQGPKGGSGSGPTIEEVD
UniProt P63165, whole entry: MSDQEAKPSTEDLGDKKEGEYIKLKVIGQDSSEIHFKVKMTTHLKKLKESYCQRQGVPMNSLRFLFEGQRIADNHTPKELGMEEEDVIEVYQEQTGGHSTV
UniProt A6NED2: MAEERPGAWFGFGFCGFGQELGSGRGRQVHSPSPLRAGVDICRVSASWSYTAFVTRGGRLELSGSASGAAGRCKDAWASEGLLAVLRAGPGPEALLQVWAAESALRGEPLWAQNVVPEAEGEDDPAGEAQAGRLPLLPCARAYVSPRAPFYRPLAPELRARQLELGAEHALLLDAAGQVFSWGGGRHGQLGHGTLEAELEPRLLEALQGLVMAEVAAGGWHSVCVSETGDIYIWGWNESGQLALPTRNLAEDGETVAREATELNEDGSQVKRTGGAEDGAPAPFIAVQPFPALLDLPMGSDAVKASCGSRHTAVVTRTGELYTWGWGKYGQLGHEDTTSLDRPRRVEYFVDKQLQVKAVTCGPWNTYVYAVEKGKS
UniProt P19256, whole entry: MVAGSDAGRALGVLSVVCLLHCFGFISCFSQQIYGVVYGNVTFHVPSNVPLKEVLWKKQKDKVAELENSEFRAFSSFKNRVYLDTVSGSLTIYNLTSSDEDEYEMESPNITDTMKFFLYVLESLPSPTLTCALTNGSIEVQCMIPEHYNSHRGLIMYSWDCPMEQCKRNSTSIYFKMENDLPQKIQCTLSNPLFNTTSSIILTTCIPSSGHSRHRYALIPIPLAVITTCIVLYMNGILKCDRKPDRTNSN
UniProt P18859: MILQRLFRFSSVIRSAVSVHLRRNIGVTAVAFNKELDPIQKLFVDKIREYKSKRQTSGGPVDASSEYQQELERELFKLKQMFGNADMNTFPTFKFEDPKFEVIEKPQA

Compound: Nc1ncnc2c1ncn2[C@@H]1O[C@H](COP(=O)(O)OP(=O)(O)OP(=O)(O)O)[C@@H](O)[C@H]1O [adenosine triphosphate]
Assay: NP40-soluble protein abundance relative to vehicle (solubility fold change) (ratio); higher = more soluble protein in presence of ATP
Procedure, shortened: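 Eight concentrations, 0.1 to 10 mM, were tested on Jurkat crude lysate for 10 min at room temperature and then 3 min at 37 °C, in three independent experiments. The lysate was solubilised with 0.8% NP40 and benzonase, ultracentrifuged, and the supernatant TMT-labelled for LC-MS/MS. Each value is the fold change against the detergent-processed vehicle in its own replicate, from vsn-normalised intensities.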

Target	NP40-soluble protein abundance (concentration: 0.1mM)	NP40-soluble protein abundance (concentration: 0.5mM)
B4DDG0 and related entries (UniProt P41732+B4E171+B4DDG0)	0.975 ± 0.059	0.882 ± 0.063
B9EGA3 and related entries (UniProt Q92925)	0.975 ± 0.051	1.02 ± 0.061
B7WPE2 and related entries (UniProt Q32P44)	1.033 ± 0.0067	1.13 ± 0.036
C9JLJ1 and related entries (UniProt Q9BZK7)	0.979 ± 0.062	1.03 ± 0.037
B9ZVU2 and related entries (UniProt Q9ULA0)	1.01 ± 0.027	0.988 ± 0.029
A6NHG8 and related entries (UniProt Q13114)	1.08 ± 0.029	1.07 ± 0.013
A8MST6 and related entries (UniProt Q5JTW2)	1.02 ± 0.15	0.978 ± 0.087
UniProt A6NHR9 and related entries	1.06 ± 0.066	1.06 ± 0.077
B3KUS5 and related entries (UniProt Q70CQ3)	1.02 ± 0.17	1.04 ± 0.066
B9A018 and related entries (UniProt Q53GS9)	1.05 ± 0.083	1.13 ± 0.088
A0A140T9T7|Q03518 (UniProt Q03518)	1.01 ± 0.06	1.03 ± 0.091
A2A2G4 and related entries (UniProt Q9Y672)	0.943 ± 0.039	0.905 ± 0.15
B4DTS2 and related entries (UniProt Q9BZL6)	1.11 ± 0.041	1.103 ± 0.0033
A0A0G2JIW1|P0DMV8 and related entries (UniProt P0DMV9+P0DMV8)	1.02 ± 0.022	1.07 ± 0.064
A0A5E8 and related entries (UniProt Q99501)	0.872 ± 0.084	0.98 ± 0.01
UniProt A2RU67	0.992 ± 0.025	0.946 ± 0.054
B3KW44 and related entries (UniProt Q9H825+E7ETE0+B5ME25+B3KW44)	0.971 ± 0.062	0.989 ± 0.072
B7WPL9 and related entries (UniProt Q6PFW1)	0.932 ± 0.061	0.99 ± 0.021
A9IYQ1 and related entries (UniProt Q9NTI5)	1.01 ± 0.046	1.04 ± 0.043
B8ZZN6 and related entries (UniProt P63165)	0.856 ± 0.099	0.852 ± 0.14
RCCD1 (UniProt A6NED2)	0.994 ± 0.032	1.03 ± 0.064
B1AMW1 and related entries (UniProt P19256)	0.894 ± 0.11	0.862 ± 0.098
A0AVT1	1.06 ± 0.079	1.06 ± 0.073
A8MUH2 and related entries (UniProt P18859)	0.984 ± 0.17	0.884 ± 0.063
B4DY09 and related entries (UniProt Q12905)	0.993 ± 0.044	1.08 ± 0.024

Some of the entries so far, field by field:
A8MUH2 and related entries (UniProt P18859)
  NP40-soluble protein abundance (concentration: 0.1mM): 0.984 ± 0.17
  NP40-soluble protein abundance (concentration: 0.5mM): 0.884 ± 0.063
B4DY09 and related entries (UniProt Q12905)
  NP40-soluble protein abundance (concentration: 0.1mM): 0.993 ± 0.044
  NP40-soluble protein abundance (concentration: 0.5mM): 1.08 ± 0.024
